Data as given in PubChem BioAssay AID2685 (National Center for Advancing Translational Sciences (NCATS), 2010).
This is one part of the list. Shown are side measurements of this screen, not its main read-out; they come without a call. The list favours compounds with an active or inconclusive main result. Potencies come from curve fits of mixed quality, noted in brackets.

Assay: qHTS Assay for Lipid Storage Modulators in Drosophila S3 Cells;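 as to cell number change: cells counted by Cell Tracker Red CMTPX staining in the red channel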
Settings: BODIPY lipid droplet fluorescence, 18-24 h; for cell number change: measured here: cell count max response, cells fed with added oleic acid
How it was run: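 Drosophila S3 cells loaded with oleic acid (400 uM, as added) and compounds at several concentrations; lipid droplets imaged by 488-nm laser-scanning cytometry, 500–530 nm intensity and object ratio to cell channel. Percent activity normalized to 20 uM Triacsin C.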

[1] = measured here: lipid fluorescence (Fed channel) AC50, cells fed with added oleic acid
[2] = measured here: cell number channel AC50, cells fed with added oleic acid

| Structure (SMILES) | cell number change | AC50 [1] | AC50 [2] |
| --- | --- | --- | --- |
| CCCCn1c(=O)[nH]c(=O)c2c1nc(-c1ccccc1F)n2Cc1ccccc1OC | 6.12% | 2.06 µM [rising, partial curve, poor fit] | – |
| CCc1nnc(NC(=O)c2cc3ccccc3oc2=O)s1 | – | 20.6 µM [rising, single point] | – |
| O=C(Nc1ccc(Cc2ccncc2)cc1)c1cc(F)c(F)cc1Cl | -6.04% | 2.06 µM [falling, single point] | – |
| Cc1cc(Cl)ccc1NC(=S)NCCN1CCOCC1 | 3.21% | 10.3 µM [rising, partial curve, poor fit] | – |
| Cc1cc([N+](=O)[O-])ccc1NC(=O)CN1CCN(Cc2ccccc2)CC1 | 4.23% | 29.1 µM [rising, single point] | – |
| CC(NC(=O)c1ccco1)C(=O)N1CCN(c2cccc(C(F)(F)F)c2)CC1 (stereo unspecified) | -18% | 6.51 µM [falling, single point] | 6.51 µM [falling, single point] |
| Cc1ccc(-n2c(-c3ccc(Cl)cc3)n[nH]c2=S)cc1 | -10.1% | 29.1 µM [falling, single point] | – |
| Cc1cc([N+](=O)[O-])nn1CC(=O)Nc1ccc(F)cc1 | -5.1% | 0.0058 µM [falling, full curve, poor fit] | 0.00461 µM [falling, full curve, poor fit] |
| C=CCNc1oc(C2CCCC2)nc1C#N | -34.7% | 5.8 µM [rising, full curve] | 29.1 µM [falling, partial curve, poor fit] |
| O=C(Nc1cccc(CCc2ccccn2)c1)c1ccc(Cl)cc1 | – | 2.31 µM [rising, partial curve, poor fit] | 2.91 µM [rising, single point] |
| CC(C)CC(=O)Nc1ccc(Nc2ccccc2)cc1 | -16.4% | 16.4 µM [falling, single point] | – |
| CCS(=O)(=O)C(C)(CCl)C(=O)Nc1ccc(C(=O)OC)cc1 (stereo unspecified) | 16% | 9.2 µM [rising, partial curve] | – |
| COc1ccc(S(=O)(=O)N2CCOCC2)cc1NC(=O)COc1ccc(C(C)=O)cc1OC | 39.4% | – | 1.64 µM [rising, full curve] |
| Cc1ccccc1NC(=O)c1cc2ccccn2n1 | 65.2% | 0.291 µM [rising, full curve] | 0.326 µM [rising, full curve] |
| COc1cc(/C=C(\C#N)C(=O)NC(C)C)cc(Cl)c1O | – | 0.146 µM [rising, single point] | – |
| N/C(=N\OC(=O)CCc1ccccc1)c1cccnc1 | 38.4% | – | 14.6 µM [rising, partial curve, poor fit] |
| CC(=O)NC(NC(=S)Nc1cccc(Br)c1)C(Cl)(Cl)Cl (stereo unspecified) | -16.3% | – | – |
| CCOc1ccccc1C(=O)NCC(=O)NCCCc1ccccc1 | -16.7% | 0.116 µM [falling, full curve, poor fit] | – |
| Cc1cc(C)cc(Nc2ncc3c(n2)CCCC3=O)c1 | 0.074% | 0.366 µM [rising, full curve, poor fit] | – |
| Cc1cccc(NC(=O)C2CCCN2S(=O)(=O)c2ccc(Cl)cc2)n1 (stereo unspecified) | -44.6% | 20.6 µM [falling, partial curve] | 13 µM [falling, partial curve, poor fit] |
| Cc1cc(-n2c(SCCC#N)nnc2-c2cccnc2)ccc1Cl | 29.8% | – | – |
| O=S(=O)(N/N=C\c1ccc(-c2ccccc2Cl)o1)c1ccccc1 | -52.7% | 14.6 µM [falling, partial curve, poor fit] | 16.4 µM [falling, partial curve, poor fit] |
| Cc1ccc(CN(Cc2ccco2)C(=S)NCC(=O)NC2CC2)cc1 | 19.8% | – | – |
| CC1CCN(CCCCOc2cccc(C(C)C)c2)CC1 | 9.72% | – | – |
| Cc1cc(NC(=O)CSc2n[nH]c(-c3ccc(Cl)cc3Cl)n2)no1 | -14.8% | 29.1 µM [falling, single point] | – |
| O=C(Nc1ccc2[nH]ncc2c1)c1ccc(F)cc1 | 18.9% | – | – |

In a second layout: entries from further up.
Structure (SMILES),cell number change,AC50 [1],AC50 [2]
C=CCNc1oc(C2CCCC2)nc1C#N,-34.7%,"5.8 µM [rising, full curve]","29.1 µM [falling, partial curve, poor fit]"
O=C(Nc1cccc(CCc2ccccn2)c1)c1ccc(Cl)cc1,–,"2.31 µM [rising, partial curve, poor fit]","2.91 µM [rising, single point]"

Continued:

| Structure (SMILES) | cell number change | AC50 [1] | AC50 [2] |
| --- | --- | --- | --- |
| COc1ccc(CC(=O)NC2CCCCCC2)c(OC)c1 | -30.6% | 0.58 µM [falling, single point] | – |
| O=C(CCc1ccc(S(=O)(=O)N2CCOCC2)cc1)NCCc1ccccn1 | -5.3% | 0.92 µM [rising, single point] | – |
| Cn1cc(CN2CCN(CC(C)(C)C)C(CCO)C2)c2ccccc21 (stereo unspecified) | 3.57% | 0.58 µM [rising, partial curve, poor fit] | – |
| O=c1[nH]c2ccc(S(=O)(=O)N3CCCC3)cc2[nH]1 | 4.76% | – | – |
| CC(=O)Nc1nc(C)c(CCCOc2ccc([N+](=O)[O-])cc2)c(=O)[nH]1 | 4.76% | – | 0.164 µM [rising, full curve, poor fit] |
| Cc1cc(O)ccc1Nc1nc(-c2sc(N)nc2C)cs1 | – | – | 0.13 µM [falling, full curve, poor fit] |
| O=C(NC1CCN(S(=O)(=O)c2ccc(F)cc2)CC1)c1cccnc1 | -25.6% | 1.16 µM [falling, full curve] | – |
| O=C(COc1ccc(Br)cc1Cl)NC(=O)NCc1ccccc1 | – | 29.1 µM [rising, partial curve, poor fit] | – |
| Cc1cccc(Nc2nnc(SCC(=O)NCc3cccs3)s2)c1C | -33.3% | – | 0.164 µM [falling, full curve, poor fit] |
| CC(C)CNC(=O)CC1Nc2ccccc2NC1=O (stereo unspecified) | – | 23.1 µM [falling, single point] | – |
| COc1ccc(NS(=O)(=O)c2ccc(O)c(NC(=O)c3ccc(S(=O)(=O)N4CCCC4)cc3)c2)cc1 | -18.3% | 2.06 µM [falling, partial curve, poor fit] | 2.59 µM [falling, partial curve] |
| N#CCCN(Cc1ccccc1)C(=S)Nc1ccc(F)cc1 | 1.85% | 5.17 µM [falling, single point] | 4.11 µM [falling, single point] |
| Cc1nonc1NC(=O)CSc1nc(C2CCCCC2)nc2ccccc12 | -34.6% | – | 13 µM [falling, partial curve, poor fit] |
| Cc1ccc(-c2nnc(N)s2)cc1 | 24.7% | 0.146 µM [rising, full curve, poor fit] | 0.058 µM [rising, full curve, poor fit] |
| Cc1nc(N)sc1N=Nc1ccccc1C(F)(F)F | -43.1% | 29.1 µM [falling, single point] | 16.4 µM [falling, single point] |
| CC(=O)c1c[nH]c(C(=O)NCc2cccc(C(F)(F)F)c2)c1 | 13.4% | 6.51 µM [falling, single point] | – |
| Cn1nc([N+](=O)[O-])nc1S(C)(=O)=O | 17.2% | – | 0.164 µM [falling, full curve] |
| CCOc1cc(N2CCOCC2)c(OCC)cc1NC(=O)COC(=O)[C@@H]1CCCN1S(=O)(=O)c1ccccc1F | 70.1% | – | 29.1 µM [rising, single point] |
| COc1cc(/C=N/NC(=O)c2ccncc2)ccc1OC(=O)c1cccc(F)c1 | 35.7% | 3.26 µM [rising, partial curve] | 29.1 µM [rising, single point] |
| [O-][N+]1=C(c2cccs2)CN(O)C1 | -1.68% | 0.517 µM [falling, full curve] | – |
| CC1CCc2c(sc(NC(=O)/C=C/c3cccs3)c2C(=O)O)C1 (stereo unspecified) | -10.5% | 29.1 µM [falling, single point] | – |
| O=C(c1ccc(S(=O)(=O)NCc2ccco2)cc1)N1CCN(c2ccc(F)cc2)CC1 | -17.3% | 0.103 µM [falling, full curve, poor fit] | – |
| O=C(NC1CCCCC1)c1cccc(S(=O)(=O)N2CCCCC2)c1 | – | – | 0.164 µM [falling, full curve, poor fit] |
| CCN(CC)C(=O)c1nn(-c2ccccc2)c2c1C1CCC2(C)C1(C)C (stereo unspecified) | 27.4% | 4.11 µM [rising, partial curve, poor fit] | 4.11 µM [rising, single point] |
| COCCn1cnc2c1c(=O)n(Cc1ccc(Br)cc1)c(=O)n2Cc1ccccc1 | -17.5% | – | – |
